This is an account of results in the supplement of paper PMC8326762, “A Small Molecule Inhibitor of Pex3–Pex19 Interaction Disrupts Glycosome Biogenesis and Causes Lethality in Trypanosoma brucei” (Frontiers in Cell and Developmental Biology, 2021).

Structures can show the parent of a compound that is named as a salt. The list shows a part of the results. Single values of this set are uncertain.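 Yeast growth was measured as optical density at 600 nm. Two-hybrid strains grew without histidine, so growth depended on Pex3–Pex19 binding. A compound was trypanosome-selective if it reduced growth of the trypanosome-pair strain by over 65% and of the human-pair strain by under 65%.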

This test deals with T. brucei Pex3-Pex19 interaction (yeast two-hybrid). The experiment in a line: growth inhibition of yeast two-hybrid strain reporting TbPex3-TbPex19 interaction, relative to DMSO; higher = stronger inhibition of T. brucei Pex3-Pex19 interaction / growth. Conditions: 100 µM; 24 h.
In turn, `CC(C)(C)NCC(O)COc1cccc2[nH]c(=O)[nH]c12` (racemic) registered a growth inhibition of 65.1%.

`O=C(c1cc(O)c(O)c([N+](=O)[O-])c1)c1ccccc1F` showed a growth inhibition of 74.8%.

Molecule `CSc1nc(N)c2ncn([C@@H]3O[C@H](COP(=O)(O)OP(=O)(O)OP(=O)(O)O)[C@H](O)C3O)c2n1` (some centres undefined) [2-Methylthioadenosine triphosphate tetrasodium] yielded a growth inhibition of 51.5%.

For the molecule `CN(C)CCCN1c2ccccc2CCc2ccc(Cl)cc21` [Clomipramine hydrochloride], the growth inhibition is 42.6%.

For the molecule `CCCCCCCCc1ccc(-c2ccc(C(=O)O)cc2)cc1`, the growth inhibition came to 51.4%.

In turn, `Cc1cc(C)c(/C=C2\C(=O)Nc3ccccc32)[nH]1` registered a growth inhibition of 46.5%.

In turn, `CC(=Cc1ccc(C(=O)O)cc1)c1ccc2c(c1)C(C)(C)CCC2(C)C` displayed a growth inhibition of 52.6%.

`Cn1cc(C(=O)OCC2CCN(CCNS(C)(=O)=O)CC2)c2ccccc21` gave a growth inhibition of 65.1%.

Take `NC/C=C/C(=O)O` [(E)-4-amino-2-butenoic acid]: the growth inhibition came to 58.1%.

For the molecule `NCC(O)c1ccc(O)c(O)c1` (racemic) [(±)-Norepinephrine (+)bitartrate], the growth inhibition is 58.9%.

In the case of `Cc1nc2c(OCc3ccccc3)cccn2c1CC#N`, the growth inhibition is 67.3%.

For the molecule `Nc1ccn([C@@H]2O[C@H](CO)[C@@H](O)[C@@H]2O)c(=O)n1` [Cytosine-1-beta-D-arabinofuranoside hydrochloride], the growth inhibition came to 25.1%.

In turn, `N=C(N)N/N=C/c1c(Cl)cccc1Cl` [Guanabenz acetate] gave a growth inhibition of 63.3%.

`Cn1c(=O)c2[nH]c(-c3ccc(S(=O)(=O)O)cc3)nc2n(C)c1=O` [8-(p-Sulfophenyl)theophylline] returned a growth inhibition of 84.2%.

The molecule `NC[C@@H](O)c1ccc(O)c(O)c1` [L(-)-Norepinephrine bitartrate] registered a growth inhibition of 62.4%.

`O=C1CN(/N=C/c2ccc(-c3ccc([N+](=O)[O-])cc3)o2)C(=O)N1` [Dantrolene sodium] came in with a growth inhibition of 43.3%.

`NC(=O)c1cn(Cc2c(F)cccc2F)nn1` [Rufinamide] displayed a growth inhibition of 59%.

For the molecule `CC(=O)NNC(=O)N1Cc2ccccc2Oc2ccc(Cl)cc21`, the growth inhibition stood at 68.5%.

`CC(C)(C=O)Cc1cc(C(C)(C)C)c(O)c(C(C)(C)C)c1` returned a growth inhibition of 50.5%.

`CN[C@H](CC(=O)O)C(=O)O` [N-Methyl-D-aspartic acid] displayed a growth inhibition of 70.4%.

The molecule `NCC(O)C1CCCCCCC1` (centres undefined) [2-Cyclooctyl-2-hydroxyethylamine hydrochloride] registered a growth inhibition of 63.4%.

In the case of `Nc1nccc2c1ncn2[C@@H]1O[C@H](CO)[C@@H](O)[C@H]1O` [3-deazaadenosine], the growth inhibition is 58.1%.

`COc1ccc2cccc(CCNC(C)=O)c2c1` [Agomelatine] yielded a growth inhibition of 36.4%.

`O=P(O)(O)C(O)(Cn1ccnc1)P(=O)(O)O` [Zoledronic acid monohydrate] showed a growth inhibition of 67.8%.

`Nc1ccn([C@@H]2O[C@H](CO)[C@@H](O)C2(F)F)c(=O)n1` [Gemcitabine hydrochloride] yielded a growth inhibition of 63.8%.

`O=C1Nc2ccc(I)cc2/C1=C/c1cc(Br)c(O)c(Br)c1` registered a growth inhibition of 34%.

In turn, `CCC(=O)c1ccc2c(c1)N(CCCN(C)C)c1ccccc1S2` [Propionylpromazine hydrochloride] yielded a growth inhibition of 53.8%.

The molecule `c1ccc(C2CN3CCSC3=N2)cc1` (centres undefined) [Tetramisole hydrochloride] yielded a growth inhibition of 34.1%.

The molecule `CC(C)(C)c1ccc(C(O)CCCN2CCC(C(O)(c3ccccc3)c3ccccc3)CC2)cc1` (centres undefined) [Terfenadine] had a growth inhibition of 71.4%.

With `O=C(CCNNC(=O)c1ccncc1)NCc1ccccc1` [Nialamide], the growth inhibition was 53.1%.

Consider `CCCCCCNC(=O)n1cc(F)c(=O)[nH]c1=O` [Carmofur], for which the growth inhibition stood at 67.3%.

The molecule `CCCc1nn(C)c2c(=O)[nH]c(-c3cc(S(=O)(=O)N4CCN(C)CC4)ccc3OCC)nc12` [Sildenafil citrate salt] registered a growth inhibition of 55.8%.

In the case of `CC(=O)[C@@]1(O)CC[C@H]2[C@@H]3CCC4=CC(=O)CC[C@]4(C)[C@H]3CC[C@@]21C` [17alpha-hydroxyprogesterone], the growth inhibition was 48%.

The molecule `CC(=O)SCC[N+](C)(C)C` [Acetylthiocholine chloride] registered a growth inhibition of 63.3%.

The molecule `O=c1cc(-c2ccc(O)cc2)oc2cc(O)cc(O)c12` [Apigenin] displayed a growth inhibition of 53.1%.

For `CCCCCCCCCCC(C)(C)C(=O)Nc1c(OC)cc(OC)cc1OC`, the growth inhibition is 58%.

For `C#C[C@]1(O)CC[C@H]2[C@@H]3CCC4=Cc5oncc5C[C@]4(C)[C@H]3CC[C@@]21C` [Danazol], the growth inhibition is 27.4%.

As for `COC(=O)C1=C(C)NC(C)=C(C(=O)OC)C1c1cccc(NC(=O)NCCCN2CCC(c3cccc(OC)c3)CC2)c1`, the growth inhibition turned out to be 60.2%.

In turn, `C[C@]12CC[C@@H]3c4ccc(O)cc4CC[C@H]3[C@@H]1CCC2=O` [Estrone] had a growth inhibition of 45.4%.
